No constants are given. Whether binding was seen depends on the method and setting. For part of these data: Binding seen in cells or lysates may run through a third protein. Some results given as binding are weak or reduced against the parent protein; the word gives no strength. Sequences can lack the tags named with a protein. Values belong to the binder of their own block, whether it stands above or below them.
Assays:
[1] = molecular target: T1, Mdm12-GST (Schizosaccharomyces pombe) (UniProt Q92377); test: pull-down; GST proteins bound to Glutathione Sepharose 4B incubated with equal amount of His-GFP-Emr1 eluted from nickel resins in 1X TBS plus 0.1% Triton X-100, 2 h at 4 °C; washed with TBS, 0.1% Triton X-100, 10 mM imidazole; western blot with anti-His and anti-GST; both purified
T1 sequence: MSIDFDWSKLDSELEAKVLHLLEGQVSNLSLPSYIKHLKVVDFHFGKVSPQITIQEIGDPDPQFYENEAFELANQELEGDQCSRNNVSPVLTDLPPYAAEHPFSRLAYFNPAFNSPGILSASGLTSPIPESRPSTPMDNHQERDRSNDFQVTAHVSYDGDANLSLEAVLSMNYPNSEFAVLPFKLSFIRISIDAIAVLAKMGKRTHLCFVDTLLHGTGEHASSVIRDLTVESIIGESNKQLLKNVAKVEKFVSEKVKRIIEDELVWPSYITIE

[2] = molecular target: T2, Mdm34-GST (Schizosaccharomyces pombe) (UniProt Q9UUC9); test: as above
T2 sequence: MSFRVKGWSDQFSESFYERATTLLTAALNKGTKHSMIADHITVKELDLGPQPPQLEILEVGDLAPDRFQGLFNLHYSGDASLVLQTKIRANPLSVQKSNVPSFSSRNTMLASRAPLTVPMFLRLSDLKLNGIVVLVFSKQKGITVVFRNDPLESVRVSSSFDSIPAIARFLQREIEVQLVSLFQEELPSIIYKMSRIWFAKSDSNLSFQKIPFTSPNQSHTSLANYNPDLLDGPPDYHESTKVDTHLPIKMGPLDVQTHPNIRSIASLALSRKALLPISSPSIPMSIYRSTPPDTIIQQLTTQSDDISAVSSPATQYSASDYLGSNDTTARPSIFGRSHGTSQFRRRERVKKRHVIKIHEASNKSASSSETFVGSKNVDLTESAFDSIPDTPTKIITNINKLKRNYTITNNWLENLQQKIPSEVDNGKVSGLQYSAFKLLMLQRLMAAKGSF

[3] = molecular target: T3, GFP-Emr1 (Schizosaccharomyces pombe) (UniProt Q4ZGE1); test: co-IP; S. pombe cell lysates (TBS lysis buffer, 0.3% Triton X-100, protease inhibitors) incubated 1 h at 4 °C with Dynabeads Protein G bound with anti-GFP antibody; washed with TBS 0.1% Triton X-100; western blot with anti-GFP and anti-tdTomato
T3 sequence: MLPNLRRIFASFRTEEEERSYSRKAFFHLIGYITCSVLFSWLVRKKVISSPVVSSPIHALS

binding [1]: binds
binding [2]: binds
B1: His-GFP-Emr1 (protein, UniProt Q4ZGE1 1-61)
chain: T3 sequence

binding [3]: binds
B2: Mdm12-tdTomato (protein, UniProt Q92377 1-273)
chain: T1 sequence

— PMC7822926
